# Experimental data taken from PubChem BioAssay AID1259415 (National Center for Advancing Translational Sciences (NCATS), 2018).
# The whole screen tested about 410,000 compounds, of which about 18,000 (4.4%) were called active. Inconclusive results, whose numbers are uncertain, are shown with a selection of clear calls. Rule as the data show it: active = activity change below about -60%; inconclusive = no clear call, values can overlap the other calls; inactive = above about -39%.
# Test: qHTS Assay for inhibitors of the human cytomegalovirus (HCMV)
# Details: HFF cells, HCMV-luciferase reporter, 72 h; at 57.5 µM; active compounds read low
# Summary of the method: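 Compounds were evaluated in HFFs infected with an HCMV luciferase reporter virus (MOI 1 PFU/cell). Luciferase in lysates collected 72 h post infection served as the replication measure.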
# % is scaled to controls: 0 for no effect and ±100 for the full control effect.
row,SMILES,"activity change, negative = inhibition"
1,O=c1cc(Nc2ccc3c(c2)OCCO3)[nH]c(=O)n1Cc1ccc(F)cc1,inactive: -5.26%
2,Cn1c(N)c(C(=O)COC(=O)/C=C/c2ccc(OC(F)F)cc2)c(=O)n(C)c1=O,inconclusive: -48.3%
3,Oc1csc(Cc2nc(-c3ccc(Br)cc3)cs2)n1,inactive: 59.9%
4,CC(=O)c1cccc(NC(=O)C2(c3ccccc3)CC2(Cl)Cl)c1 (stereo not given),inconclusive: -59.3%
5,CCCCNC(=O)c1ccc(Cc2cn(C)c3ccccc23)nc1,inactive: -5.66%
6,CC1=C(C(=O)OCc2ccc(C)cc2)C(c2ccc(O)c([N+](=O)[O-])c2)NC(=O)N1 (stereo not given),inconclusive: -57.4%
7,CCOC(=O)N1CCC(N2C(=O)c3ccccc3C2Nc2ccccc2)CC1 (stereo not given),inactive: -18.7%
8,CCc1ccccc1NS(=O)(=O)c1ccc(OC)c2ncccc12,inconclusive: -40.8%
9,Cc1ccc(-n2c(/C=C/c3cccs3)nc3ccccc3c2=O)cc1C,inconclusive: -57.5%
10,CC1=C(C(=O)OC2CCCCCC2)C(c2c(F)cccc2Cl)CC(=O)N1 (stereo not given),inconclusive: -44.5%
11,Cc1ccc(S(=O)(=O)N2C3C=CC(C3)C2C(=O)O)cc1 (stereo not given),inconclusive: -41.1%
12,Cc1ccccc1-n1c(O)c(/C=N/N2CCCCC2c2cccnc2)c(=O)[nH]c1=O (stereo not given),inconclusive: -41.9%
13,CC/C(=N\NC(=O)c1ccccc1Cl)c1ccc(Br)s1,inconclusive: -48.9%
14,CCOC(=O)c1[nH]cnc1N=Nc1c(O)ccc2ccccc12,active: -97.3%
15,CCOC(=O)c1c(OCC)[nH]c2c1cc(O)c1ccccc12,inconclusive: -49.6%
16,Cc1ccn2c(C(=O)CSc3ccc(Cl)cc3)c(C)nc2c1,inconclusive: -41.7%
17,CSc1ccc(CN(C)C(=O)c2cc(=O)c3ccccc3o2)cc1,inactive: -21.7%
18,CC(C)CCC(C(=O)O)C(C)CC(=O)NC1CCCCC1 (stereo not given),inactive: -13.1%
19,NCCc1nnc(SCC(=O)Nc2ccc(Br)cc2)o1,inconclusive: -40.7%
20,COC(=O)CSc1nnc(SCc2ccccc2)s1,inconclusive: -46.1%
21,COC(=O)c1ccc(CNC(=O)C(C)N=C2NS(=O)(=O)c3ccccc32)cc1 (stereo not given),inactive: -14.5%
22,COC12CC(=O)C(C(C)=O)=C(O)C1(C)c1c(O)c(C)c(O)c(C(C)=O)c1O2 (stereo not given),inconclusive: -42.9%
23,CCOc1ccc(C(=O)Nc2ccccc2N2CCCC2)cc1,active: -76.1%

row,SMILES,"activity change, negative = inhibition"
1,CCCCCCN=C(CC)c1c(O)n(CCCC)c(=O)[nH]c1=O,inconclusive: -53.1%
2,CCOc1cc(C2C(C(=O)OC)=C(C)NC3=C2C(=O)c2ccccc23)cc(Cl)c1O (stereo not given),inconclusive: -44.7%
3,COc1cccc(C(=O)Nc2cccc(NC(=O)c3ccccc3Cl)c2)c1,active: -96.7%
4,Cc1cc(C)n(-c2ccc(C(=O)OCC(=O)N3CCN(c4ccccc4)CC3)cc2)n1,inconclusive: -42.7%
5,CN(c1ccccc1)S(=O)(=O)c1ccc(C(=O)Nc2cccc(S(=O)(=O)N3CCOCC3)c2)cc1,active: -94.6%
6,COc1cccc(/C=N/NC(=O)C(C)Sc2ccccc2)c1 (stereo not given),inconclusive: -54.4%
7,Cc1nc2ccccn2c1-c1csc(Nc2cccc(C(=O)O)c2)n1,inconclusive: -42.1%
8,CCOc1cc(C(=O)Nc2cc(C)ccc2C)ccc1OCC(=O)N1CCCCC1,active: -70.7%
9,COC(=O)c1ccccc1COc1cccn2c(N(C)CC3CC3)c(C)nc12,active: -99.4%
10,Cc1cc(C)c2c(N)c(C(=O)NNC(=O)c3ccccc3)sc2n1,inactive: 28.5%
11,Cc1cccc(-n2ncc3c(Nc4ccc(Oc5ccc(Cl)cc5)cc4)ncnc32)c1,inconclusive: -45.1%
12,COc1ccc2c(c1)OC[C@H]1[C@H]2N2C(=O)[C@H](C)NC(=O)[C@@]2(C)[C@H]1c1ccccc1,active: -91.1%
13,COc1ccc(/C=C/C(=O)Nc2cc(C(F)(F)F)ccc2Cl)cc1OC,inconclusive: -46.9%
14,O=C(O)CC(c1ccccc1)N1C(=O)c2cccc([N+](=O)[O-])c2C1=O (stereo not given),inactive: 55.7%
15,CSc1ccccc1OCc1cc(C(=O)NCCn2ccnc2C)no1,inconclusive: -40.6%
16,NNC(=O)CS(=O)(=O)c1ccc(Cl)cc1,inactive: -6.03%
17,COc1ccc(C(=O)NCCn2cc(SCC(=O)Nc3cccc(C)c3)c3ccccc32)cc1,inconclusive: -47.3%
18,CCOCCCNc1nc(C)nc2c1nnn2Cc1c(F)cccc1Cl,inconclusive: -45.3%
19,CC(C)Nc1cc(C(F)(F)F)nc(-c2ccccn2)n1,inactive: 33.1%
20,Cc1oc2nc(SCC(=O)NCCCO)nc(N)c2c1C,inconclusive: -50%
21,COc1ccc(OCC(O)CN2CCN(Cc3ccc4c(c3)OCO4)CC2)cc1 (stereo not given),inactive: -11.2%
22,Cc1onc(C(=O)Nc2sc3c(c2C#N)CCCC3)c1[N+](=O)[O-],inconclusive: -48.3%

# Some of the entries above, set out differently.
row	SMILES	activity change, negative = inhibition
2	CCOc1cc(C2C(C(=O)OC)=C(C)NC3=C2C(=O)c2ccccc23)cc(Cl)c1O (stereo not given)	inconclusive: -44.7%
9	COC(=O)c1ccccc1COc1cccn2c(N(C)CC3CC3)c(C)nc12	active: -99.4%
